In publication PMC5426800:
These are yes or no findings as the source states them, for the method shown. In cells and extracts the contact can be indirect. Some entries that bind do so weakly or less than the wild type. For part of these data: Where a sequence is shown, tags or fusion partners need not be part of it.

By UniProt entry, the sequences of proteins in these tests, tags left out.
UniProt P49736: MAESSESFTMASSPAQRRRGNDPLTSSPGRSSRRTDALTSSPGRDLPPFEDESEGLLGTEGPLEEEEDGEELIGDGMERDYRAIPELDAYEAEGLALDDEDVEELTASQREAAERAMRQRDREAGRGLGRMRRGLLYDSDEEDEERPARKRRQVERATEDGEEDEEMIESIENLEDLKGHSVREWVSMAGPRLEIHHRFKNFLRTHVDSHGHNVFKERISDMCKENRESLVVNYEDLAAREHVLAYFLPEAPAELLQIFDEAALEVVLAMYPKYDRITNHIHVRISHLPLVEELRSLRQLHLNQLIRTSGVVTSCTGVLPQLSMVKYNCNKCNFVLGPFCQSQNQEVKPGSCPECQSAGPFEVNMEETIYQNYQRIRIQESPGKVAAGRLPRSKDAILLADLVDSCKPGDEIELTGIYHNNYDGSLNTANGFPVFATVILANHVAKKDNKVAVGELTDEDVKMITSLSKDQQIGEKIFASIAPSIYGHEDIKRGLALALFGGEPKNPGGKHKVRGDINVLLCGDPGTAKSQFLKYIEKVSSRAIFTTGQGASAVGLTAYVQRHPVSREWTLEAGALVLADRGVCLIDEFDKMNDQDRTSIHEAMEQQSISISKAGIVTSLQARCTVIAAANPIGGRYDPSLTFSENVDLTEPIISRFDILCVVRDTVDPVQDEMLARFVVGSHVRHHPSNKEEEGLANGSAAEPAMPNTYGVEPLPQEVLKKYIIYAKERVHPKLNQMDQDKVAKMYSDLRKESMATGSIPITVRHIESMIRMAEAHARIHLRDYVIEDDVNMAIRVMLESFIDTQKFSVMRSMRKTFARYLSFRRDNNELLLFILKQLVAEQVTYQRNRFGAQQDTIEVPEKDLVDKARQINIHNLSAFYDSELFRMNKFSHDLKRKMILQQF
UniProt P51692: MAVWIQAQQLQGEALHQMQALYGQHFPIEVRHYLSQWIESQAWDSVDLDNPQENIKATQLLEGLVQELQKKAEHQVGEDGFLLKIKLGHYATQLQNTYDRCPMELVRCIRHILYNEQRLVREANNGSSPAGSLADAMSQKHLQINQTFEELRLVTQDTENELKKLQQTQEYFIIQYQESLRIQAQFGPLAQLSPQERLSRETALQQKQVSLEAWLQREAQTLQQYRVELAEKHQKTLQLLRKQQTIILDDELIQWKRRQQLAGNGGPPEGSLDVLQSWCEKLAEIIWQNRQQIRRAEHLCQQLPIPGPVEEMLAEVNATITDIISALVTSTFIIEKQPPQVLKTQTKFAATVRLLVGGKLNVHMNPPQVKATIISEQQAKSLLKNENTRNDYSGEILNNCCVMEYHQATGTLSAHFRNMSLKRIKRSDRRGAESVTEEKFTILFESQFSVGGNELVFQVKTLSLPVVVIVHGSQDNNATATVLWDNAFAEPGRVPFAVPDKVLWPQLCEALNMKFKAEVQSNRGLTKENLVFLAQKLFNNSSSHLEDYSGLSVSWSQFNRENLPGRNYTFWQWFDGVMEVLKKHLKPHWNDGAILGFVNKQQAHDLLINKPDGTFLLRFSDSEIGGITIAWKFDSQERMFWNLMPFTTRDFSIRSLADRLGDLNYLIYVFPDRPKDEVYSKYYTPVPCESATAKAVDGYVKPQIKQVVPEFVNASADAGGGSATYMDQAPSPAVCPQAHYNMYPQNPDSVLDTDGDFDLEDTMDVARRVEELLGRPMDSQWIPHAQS
UniProt Q15329: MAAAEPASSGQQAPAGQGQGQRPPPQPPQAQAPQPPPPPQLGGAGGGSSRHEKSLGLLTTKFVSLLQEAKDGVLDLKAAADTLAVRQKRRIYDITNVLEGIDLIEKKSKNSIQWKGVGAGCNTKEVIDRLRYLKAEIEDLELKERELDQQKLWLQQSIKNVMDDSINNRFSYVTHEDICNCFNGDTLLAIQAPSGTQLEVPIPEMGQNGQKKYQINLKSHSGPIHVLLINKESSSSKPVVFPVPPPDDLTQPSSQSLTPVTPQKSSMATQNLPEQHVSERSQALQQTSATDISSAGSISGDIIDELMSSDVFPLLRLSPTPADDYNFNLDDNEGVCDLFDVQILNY

How the values were obtained:
[1] = molecular target: T1, B19V large non-structural protein NS1, Flag-tagged (human parvovirus B19) (UniProt Q9PZT1); experiment: co-IP; anti-Flag-conjugated beads or control beads on lysates of NS1-Flag-expressing UT7/Epo-S1 cells; blots for MCM2, pSTAT5(Y694), E2F5 and Flag; the paper calls it a pull-down
T1 sequence: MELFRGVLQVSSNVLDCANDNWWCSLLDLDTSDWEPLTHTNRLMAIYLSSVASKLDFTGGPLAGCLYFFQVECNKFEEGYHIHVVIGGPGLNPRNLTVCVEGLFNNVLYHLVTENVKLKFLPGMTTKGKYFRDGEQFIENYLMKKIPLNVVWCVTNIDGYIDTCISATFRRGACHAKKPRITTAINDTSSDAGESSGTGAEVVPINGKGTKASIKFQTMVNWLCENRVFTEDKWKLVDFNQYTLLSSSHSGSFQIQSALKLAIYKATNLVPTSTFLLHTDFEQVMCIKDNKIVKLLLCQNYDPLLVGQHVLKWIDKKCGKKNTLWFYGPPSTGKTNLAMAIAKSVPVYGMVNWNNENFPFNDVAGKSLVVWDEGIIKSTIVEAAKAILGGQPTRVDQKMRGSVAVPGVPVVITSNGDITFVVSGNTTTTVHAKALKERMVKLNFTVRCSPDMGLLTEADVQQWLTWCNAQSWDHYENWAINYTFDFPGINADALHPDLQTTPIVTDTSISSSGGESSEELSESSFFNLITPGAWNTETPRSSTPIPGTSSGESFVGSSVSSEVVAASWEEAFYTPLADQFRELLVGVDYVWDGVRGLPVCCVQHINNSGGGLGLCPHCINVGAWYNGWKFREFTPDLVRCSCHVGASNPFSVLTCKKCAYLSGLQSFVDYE

[2] = molecular target: MCM2 (minichromosome maintenance complex subunit 2) (human (endogenous in UT7/Epo-S1 and CD36+ EPCs)) (UniProt P49736); experiment: co-IP; endogenous proteins; UT7/Epo-S1 cells lysed in RIPA buffer, 3 ug antibody (anti-pSTAT5(Y694), anti-MCM5, anti-MCM2 or control IgG) overnight at 4 C, Protein A/G beads, washed with PBS; lysate with or without DNase (750 units of Benzonase) in Fig 7D

binding [2]	Substance	binding [1]
–	MCM2 (minichromosome maintenance complex subunit 2) (from UniProt P49736 1-904)	no binding
binds	STAT5B (from UniProt P51692 1-787)	–
–	transcription factor E2F5 (from UniProt Q15329 1-346)	binds
